# Experimental data reported in PubChem BioAssay AID819 (Columbia University Molecular Screening Center, 2007).
# In all, about 94,000 compounds went through this assay and about 280 (0.3%) were called active. The inconclusive results got no clear call from the source; some entries with a clear call stand among them for comparison.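 The calls were made as follows: active = activation above 40%, about the mean plus 3 SD, also judged a hit on visual image review; inconclusive = activation above 40% but not a hit on visual review; inactive = activation not above 40% and no visual hit.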
# Assay: enhancers of NFkB p65 translocation in HUVEC – imaging, IL-1B stimulus, high-content imaging, primary screen (AID 819);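 also: percent activation is computed from the nuclear over cytoplasmic p65 intensity ratio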
# Settings: HUVEC IL-1B NFkB p65 nuclear translocation imaging; at 2 µM; hits give high values
row,SMILES,activation
1,CSc1nnc2c(n1)OC=Nc1ccccc1-2,inactive: -1.3%
2,O=C(NCc1ccco1)c1cc2sccc2n1Cc1ccccc1,inactive: 31.5%
3,CN1CC2([N+](=O)[O-])CC=C(Oc3ccccc3)C([N+](=O)[O-])(C1)C2 (centres undefined),inconclusive: 41.6%
4,COc1ccc(NC(=O)C2=C(C)NC(=O)NC2c2cccc(OC)c2OC)c(OC)c1 (centres undefined),inconclusive: 42.4%
5,CC1(C)CC(=O)C=C(Nc2ccc(S(N)(=O)=O)cc2)C1,inactive: -34%
6,COc1ccc(CNc2n[nH]c(NCc3ccc(OC)c(OC)c3)n2)cc1OC,inconclusive: 45.7%
7,c1ccc(-c2noc(CSc3nnnn3C3CCCCC3)n2)cc1,inconclusive: 48%
8,N#CCSc1nc2sc3c(c2c(=O)n1C1CCCCC1)CCCC3,inconclusive: 53.3%
9,CCOC(=O)N1CCN(C(=O)C(C)(C)Oc2ccc(Cl)cc2)CC1,inactive: -11.2%
10,Cc1cc(NC(=O)Cn2nnc3sc4c(c3c2=O)CCC(C(C)(C)C)C4)no1 (centres undefined),inactive: -8.25%
11,CCO/C=C/C(=O)N(C)CCC#N,inactive: -3.55%
12,Cc1nc(-c2ccc(S(=O)(=O)N3CCCCCC3)cc2)cs1,inactive: 9.11%
13,O=C(O)CC1C(=O)OCN1C(=O)OCc1ccccc1 (centres undefined),inconclusive: 132%
14,COc1cccc(-c2nc(CS(=O)(=O)CC(=O)Nc3cc(C)ccc3C)c(C)o2)c1,inconclusive: 41.4%
15,Cc1c(/C=C/C(=O)c2cccs2)cnn1C,inconclusive: 47.5%
16,COc1ccc(N(CC(=O)NC2CCCCCC2)S(=O)(=O)c2c(C)nn(C)c2C)cc1,inconclusive: 46.6%
17,O=C(NCCN1CCc2ccccc2C1)C1CCN(S(=O)(=O)N2CCCCC2)CC1,inactive: -2.56%
18,O=C1c2ccccc2C(=O)N1CCCSc1nc2ccccc2o1,inconclusive: 40.4%
19,COc1ccc(-c2[nH]ncc2Oc2ccccc2OC)c(O)c1,inactive: -3.25%
20,Cc1onc(-c2ccccc2Cl)c1C(=O)Nc1ccc2c(c1)OCO2,inconclusive: 43%

# Reformatted with bars between the fields: 14 of the compounds above
row | SMILES | activation
3 | CN1CC2([N+](=O)[O-])CC=C(Oc3ccccc3)C([N+](=O)[O-])(C1)C2 (centres undefined) | inconclusive: 41.6%
4 | COc1ccc(NC(=O)C2=C(C)NC(=O)NC2c2cccc(OC)c2OC)c(OC)c1 (centres undefined) | inconclusive: 42.4%
5 | CC1(C)CC(=O)C=C(Nc2ccc(S(N)(=O)=O)cc2)C1 | inactive: -34%
6 | COc1ccc(CNc2n[nH]c(NCc3ccc(OC)c(OC)c3)n2)cc1OC | inconclusive: 45.7%
7 | c1ccc(-c2noc(CSc3nnnn3C3CCCCC3)n2)cc1 | inconclusive: 48%
8 | N#CCSc1nc2sc3c(c2c(=O)n1C1CCCCC1)CCCC3 | inconclusive: 53.3%
9 | CCOC(=O)N1CCN(C(=O)C(C)(C)Oc2ccc(Cl)cc2)CC1 | inactive: -11.2%
10 | Cc1cc(NC(=O)Cn2nnc3sc4c(c3c2=O)CCC(C(C)(C)C)C4)no1 (centres undefined) | inactive: -8.25%
11 | CCO/C=C/C(=O)N(C)CCC#N | inactive: -3.55%
12 | Cc1nc(-c2ccc(S(=O)(=O)N3CCCCCC3)cc2)cs1 | inactive: 9.11%
13 | O=C(O)CC1C(=O)OCN1C(=O)OCc1ccccc1 (centres undefined) | inconclusive: 132%
14 | COc1cccc(-c2nc(CS(=O)(=O)CC(=O)Nc3cc(C)ccc3C)c(C)o2)c1 | inconclusive: 41.4%
15 | Cc1c(/C=C/C(=O)c2cccs2)cnn1C | inconclusive: 47.5%
16 | COc1ccc(N(CC(=O)NC2CCCCCC2)S(=O)(=O)c2c(C)nn(C)c2C)cc1 | inconclusive: 46.6%

# (cont.)

row,SMILES,activation
1,Nc1cc2c(cc1C(=O)c1ccc(Cl)cc1)OCCO2,inactive: 20.9%
2,CNc1nc(C(=O)O)nc(N2CCOCC2)n1,inconclusive: 42.1%
3,CCOC(=O)N1CCN(C(=O)c2ccc3c(=O)n(Cc4ccc(Cl)cc4)c(=S)[nH]c3c2)CC1,inconclusive: 48.1%
4,O=C1c2cccc3cc(Br)cc(c23)C(=O)N1Nc1ccccc1,inconclusive: 41.4%
5,Cc1ccc(C(=O)NC=C(Cl)Cl)cc1,inconclusive: 97.9%
6,CCN(CC)C(=O)c1cnn(-c2ccccc2)c1NC(=O)c1ccccc1F,inactive: 17.8%
7,CC(C)OC(=O)c1c(N)n(CCCN2CCOCC2)c2nc3ccccc3nc12,inconclusive: 43.9%
8,Cc1ccc(C)c(/C(O)=C2/C(=O)C(=O)N(CCN3CCOCC3)C2c2ccc(C)o2)c1 (centres undefined),active: 107%
9,CCOC(=O)N1CCC(N2C(=O)c3ccccc3C2Nc2c(C)cccc2C)CC1 (centres undefined),inactive: -6.9%
10,O=C1CN(C(=O)c2ccco2)C(c2ccccc2)c2cc(Cl)ccc2N1 (centres undefined),inactive: -3.12%
11,COc1ccc(NC(=O)N2CCN(c3cccc(C(F)(F)F)c3)CC2)cc1,inactive: -3.17%
12,COc1ccc(CN(C(=O)CSc2nnc(-c3c[nH]c4ccccc34)o2)c2ccc(F)cc2)cc1OC,inconclusive: 46.1%
13,O=C(NCCCO)c1nc2ccccc2s1,active: 41.8%
14,O=C(O)c1coc2ccccc12,active: 56.9%
15,O=C(OCc1cc(=O)n2cc(Br)ccc2n1)C1COc2ccccc2O1 (centres undefined),inactive: -2.1%
16,Nc1ccc2c(c1)N1CCN=C1S2,inconclusive: 64.7%
17,COC(=O)CSc1nc(N)nc(C)c1Br,inconclusive: 56.7%
18,O=C(CN1CCN(S(=O)(=O)c2ccc(Cl)cc2)CC1)NC(=O)NC1CCCCC1,inactive: -5.26%
19,O=C(NCCCN1CCN(c2cccc(Cl)c2)CC1)c1cccc(N2CCCC2=O)c1,active: 45.8%
20,CSc1c(CC(=O)Nc2ccccc2Cl)n(Cc2ccccc2)c2ccccc12,inconclusive: 92.1%

row,SMILES,activation
1,COc1ccc(OC)c(C2C(C(=O)Nc3nc4ccccc4s3)=C(C)NC3=C2C(=O)CCC3)c1 (centres undefined),inconclusive: 54.5%
2,COCCCNC(=O)C1C2C=CC3(CN(Cc4ccc(C)cc4)C(=O)C13)O2 (centres undefined),inconclusive: 55%
3,Cc1nc2ccc(S(=O)(=O)NC(C(=O)N3CCCC3)C(C)C)cc2s1 (centres undefined),inconclusive: 53.2%
4,Cc1cc(O)c(C(=O)c2ccccc2C(=O)O)cc1C,inconclusive: 54.8%
5,O=C(Cc1ccccc1)N1CCCC(c2nc(-c3cccs3)no2)C1 (centres undefined),inconclusive: 54%
6,CC(=O)c1c(C)[nH]c(C(=O)COC(=O)CN(C)S(=O)(=O)c2ccc(Cl)cc2)c1C,inactive: 31.1%
7,CCCCn1c(N(CCOC(C)=O)C(C)=O)nc2ccccc21,inconclusive: 56.4%
8,CC(C)(C)Cc1nnc(NS(=O)(=O)c2ccc(F)cc2)s1,active: 98.4%
9,CC1=NN(c2ccc(Br)cc2)C(=O)/C1=C/c1cccs1,inconclusive: 87.8%
10,COc1cc(/C=N/n2cnnc2)ccc1OCCSc1ccc(C)cc1,inactive: -5.76%
11,CCCc1cc(=O)oc2cc3occ(C)c3cc12,inconclusive: 42.5%
12,Nn1c(SCc2nc3ccccc3[nH]2)nnc1-c1ccccc1,inconclusive: 58.8%
13,CCCCc1[nH]c(=O)c(C#N)c2c1CSC(C)(C)C2,inconclusive: 41.5%
14,COC(=O)c1ccc(C2Nc3ccc(/C(C)=N/NC(=O)C(OC)c4ccccc4)cc3C3C=CCC32)cc1 (centres undefined),inconclusive: 91.9%
15,CCN=C1SC(C(=O)Nc2cccc(C)c2)CC(=O)N1CC (centres undefined),inconclusive: 41.4%
16,N#C/C(=C/c1ccc(N2CCOCC2)c([N+](=O)[O-])c1)C(N)=O,inactive: -1.45%
17,CCc1cccc(NC(=O)CN(c2ccc(OC)cc2)S(=O)(=O)c2c(C)n[nH]c2C)c1,inconclusive: 56.5%
18,O=C1c2cccnc2C(O)N1Cc1cccs1 (centres undefined),inconclusive: 48.3%
19,CCCCNC(=O)CCCCCNS(=O)(=O)c1ccc(OC)cc1,inconclusive: 43.4%
